Measured values taken from PubChem BioAssay AID624297 (National Center for Advancing Translational Sciences (NCATS), 2012).
Values joined by “and” are separate entries in the source; they are usually repeats but may differ in a detail not shown here. Equal values may be shown once. Hit rate of the full screen: of about 340,000 compounds, about 6,200 (1.8%) were called active. The inconclusive results got no clear call from the source; some entries with a clear call stand among them for comparison. The call rests on the fitted dose curve; in most records, active means well fitted activation curve with a large enough effect; inconclusive means small, poorly fitted or top-dose-only effect; inactive means no such curve, though single readings can be large or run the other way. Where the call is inconclusive, the potency comes from a doubtful curve fit.

Experiment: A quantitative high throughput screen for small molecules that induce DNA re-replication in SW480 colon adenocarcinoma cells. Further: nearly all actives have a fitted effect of over 55% in size. On re-replication activation: % of control where 0% means no effect.
Conditions: Hoechst DNA content imaging, 48 h; re-replication activation: at 46.1 µM (top of the series) unless noted
How it was run: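 Quantitative HTS format with DMSO vehicle controls; 48 hr drug incubation at 37 C, then 40 min Hoechst staining and scanning imager measurement at 405 nm excitation.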
Potency means the concentration at half of the fitted maximal effect.

| SMILES | Potency | re-replication activation |
| --- | --- | --- |
| Nc1nnc(SCC(=O)Nc2cccc(S(N)(=O)=O)c2)s1 | inconclusive: 0.146 µM [activator, partial curve, poor fit] |  |
| COc1ccc(NC(=O)CSc2c3c(nc4ccccc24)CCCC3)c(OC)c1 | inconclusive: 29.1 µM [activator, single point] |  |
| CC(Sc1ncnc2sc(-c3ccccc3)cc12)C(N)=O (configuration not stated) | inconclusive: 4.11 µM [activator, full curve] |  |
| Cc1cc[n+](-c2[nH]c(=O)sc2/C=N/N=C(\[O-])c2ccncc2)cc1 | inactive |  |
| Cn1c(-c2ccc(F)cc2)cnc1NCc1cccc(F)c1 | inconclusive: 29.1 µM [activator, partial curve, poor fit] |  |
| CCCN1CCC2(CC1)NC(C(=O)O)Cc1c2[nH]c2ccccc12 (configuration not stated) | inactive |  |
| COc1ccc(NC(=O)CN(C)C(=O)c2cccc(S(=O)(=O)N3CCN(c4ccccc4)CC3)c2)cc1 | inactive |  |
| COc1ccccc1N(CC(=O)Nc1ccc(C)cc1Cl)S(=O)(=O)c1cccs1 | inactive |  |
| COc1ccccc1C(=O)Nc1nc2cc3c(cc2s1)OCCO3 | inconclusive: 23.1 µM [activator, single point] |  |
| Cc1ccc(S(=O)(=O)N2CCN(C(=O)c3cccs3)CC2)cc1 | inconclusive: 3.66 µM [activator, full curve, poor fit] |  |
| Nc1nc(N2CCCCC2)c(C=O)c(N2CCCCC2)n1 | inactive |  |
| Cc1ccc(-c2cc(C(=O)N3CCc4ccccc4C3)[nH]n2)cc1C | inactive |  |
| COc1ccc(N=C2C(=Nc3ccc(OC)cc3)N(c3ccc(OC)cc3)C(=S)N2C)cc1 | inactive |  |
| COc1ccc(C2C3=C(CCCC3=O)Nc3n[nH]c(C)c32)cc1OC (configuration not stated) | inconclusive: 0.146 µM [activator, full curve, poor fit] |  |
| O=C1[C@H](Cc2ccccc2)NCC=CC[C@@H](c2ccc(Cl)cc2)N1Cc1ccccc1 | inconclusive: 1.84 µM [activator, partial curve, poor fit] |  |
| CCOC(=O)c1cccc(N2CC3CNC(=O)C2(C(=O)OC)N3C)c1 (configuration not stated) | inactive |  |
| CCOC(=O)C1CCN(C(=O)c2oc3ccc4c(c3c2C)C(O)CC2(CCCCC2)O4)CC1 (configuration not stated) | inconclusive: 18.4 µM [activator, single point] |  |
| CC(=O)c1ccc(OCCCC(=O)N2CCN(S(=O)(=O)c3ccc(C)cc3C)CC2)cc1 | inactive |  |
| COc1ccc(/C=N/NC(=O)c2ccc(Br)cc2)cc1Cn1cc(Cl)cn1 | inconclusive: 7.31 µM [activator, partial curve, poor fit] |  |
| Cc1cccc(OCCCN2C(=O)C(=O)c3cc(C)ccc32)c1 | inconclusive: 20.6 µM [activator, single point] |  |
| O=C(NC1CCCc2ccccc21)C1CCN(S(=O)(=O)c2ccccc2F)CC1 (configuration not stated) | inactive |  |
| COC(=O)[C@@]12CCCCN1[C@H](c1ccc(-c3cccc(Cl)c3)c(OC)c1)[C@@H]1C(=O)N(C)C(=O)[C@@H]12 | inconclusive: 20.6 µM [activator, single point] |  |
| Cc1c(NS(=O)(=O)c2ccc(NCC3CCCO3)c([N+](=O)[O-])c2)c(=O)n(-c2ccccc2)n1C (configuration not stated) |  | inconclusive: -37% [activator] |

| SMILES | Potency | re-replication activation |
| --- | --- | --- |
| NS(=O)(=O)c1ccc(N2CCOCC2)c(C(=O)NCc2ccc3c(c2)OCO3)c1 | inconclusive: 32.6 µM [activator, partial curve, poor fit] |  |
| COc1ccc(S(=O)(=O)N2C3CCC2CC(NC(=O)NC2CCCCC2)C3)cc1 (configuration not stated) | inactive |  |
| CCOC(=O)Cc1cc(=O)n2[nH]c(-c3ccccc3)c(-c3ccccc3)c2n1 | inactive |  |
| CC(C)OP(=O)(OC(C)C)C(NC(=O)c1ccc(Br)cc1)c1ccccc1 (configuration not stated) | inconclusive: 18.4 µM [activator, single point] |  |
| Cc1cc2oc(=O)ccc2cc1[N+](=O)[O-] | inactive |  |
| COc1ccc2cc(-c3cc(C(=O)OCC(=O)Nc4c(C)n(C)n(-c5ccccc5)c4=O)c4ccccc4n3)ccc2c1 | inactive |  |
| COc1ccc(C)cc1N(CC(=O)Nc1cccc(N(C)S(C)(=O)=O)c1)S(C)(=O)=O | inactive |  |
| O=C(O)COc1ccc(/C=C/c2nc3ccc([N+](=O)[O-])cc3s2)cc1 | inactive |  |
| COc1ccc2cc(CN(CC3COCCO3)S(=O)(=O)c3ccc(Cl)cc3)c(=O)[nH]c2c1 (configuration not stated) | inconclusive: 14.6 µM [activator, partial curve, poor fit] |  |
| Cc1ccc(C(=O)CNc2ccccc2)cc1 | inconclusive: 18.4 µM [activator, single point] |  |
| Cc1ccc(S(=O)(=O)/N=C2\C=C(Nc3cccc(C(=O)O)c3)C(=O)c3ccccc32)c(C)c1 | inconclusive: 2.91 µM [activator, full curve, poor fit] |  |
| O=C(Nc1ccc2c(c1)OCO2)Nc1cnccn1 | inconclusive: 16.4 µM [activator, single point] |  |
| NC(=S)NN=C1c2ccccc2-c2c(F)c(F)c(F)c(F)c21 | active: 14.6 µM |  |
| COc1ccc2c(=O)cc(-c3ccncc3)oc2c1OC | inconclusive: 23.1 µM [activator, single point] |  |
| CCCN1C(=O)/C(=C/c2ccc(N3CCCC3)c(C)c2)NC1=S | inconclusive: 16.4 µM [activator, single point] |  |
| Cc1ccc(C(=O)C2=C(O)C(=O)N(Cc3cccnc3)C2c2ccc(OC(C)C)cc2)o1 (configuration not stated) | inconclusive: 0.0046 µM [activator, full curve, poor fit] |  |
| COc1cccc(/C=N/NC(=O)C(=O)N/N=C/c2cccc(OC)c2O)c1O | active: 6.51 µM |  |
| Oc1c(I)cc(Cl)c2cccnc12 | inconclusive: 35.5 µM [activator, single point] and inconclusive: 35.5 µM [activator, partial curve, poor fit] |  |
| CCCN1CCN(CCCNC(=O)CCN2C(=O)COc3ccccc32)CC1 | inactive |  |
| C=C(C)COc1ccc(-c2[nH]ncc2-c2ccc(Br)cc2)c(O)c1 | active: 20.6 µM |  |
| CCc1noc(C)c1C(=O)Nc1ccc(C#N)cc1 | inconclusive: 4.61 µM [activator, full curve, poor fit] |  |
| COc1cccc(C=NNC(=O)c2ccncc2)c1O | inconclusive: 0.92 µM [activator, full curve, poor fit] |  |
| CCCCn1c2nc3ccccc3nc2c2c(=O)n(-c3ccccc3)cnc21 | inconclusive: 29.1 µM [activator, single point] |  |

Taken from above.
Potency with Cc1ccc(S(=O)(=O)/N=C2\C=C(Nc3cccc(C(=O)O)c3)C(=O)c3ccccc32)c(C)c1 reads inconclusive: 2.91 µM [activator, full curve, poor fit]
Potency with CCCN1C(=O)/C(=C/c2ccc(N3CCCC3)c(C)c2)NC1=S reads inconclusive: 16.4 µM [activator, single point]
Potency with COc1ccc2cc(-c3cc(C(=O)OCC(=O)Nc4c(C)n(C)n(-c5ccccc5)c4=O)c4ccccc4n3)ccc2c1 reads inactive
Potency with CCCCn1c2nc3ccccc3nc2c2c(=O)n(-c3ccccc3)cnc21 reads inconclusive: 29.1 µM [activator, single point]

Continuation.

| SMILES | Potency | re-replication activation |
| --- | --- | --- |
| CCOc1cc(/C=C(\C#N)c2nc(-c3cccs3)c(NC(C)=O)s2)ccc1O | inconclusive: 29.1 µM [activator, single point] |  |
| O=C(NCC1CCCO1)C(c1cccs1)N(Cc1ccccc1Cl)C(=O)c1ccc(-c2ccccc2)[nH]1 (configuration not stated) | inconclusive: 18.4 µM [activator, single point] |  |
| Cc1cccc(NC(=O)C(C)Sc2nc3ccccc3c(=O)n2CCCN2CCOCC2)c1 (configuration not stated) | inactive |  |
| CCCn1c(NCc2ccccc2NS(=O)(=O)c2ccc(C)cc2)nc2ccccc21 | inconclusive: 29.1 µM [activator, single point] |  |
| COC(=O)C1CCN(CC(=O)Nc2ccc(OC)c(Cl)c2)CC1 | inactive |  |
| O=C(CSC(=S)N1CCOCC1)c1cc2ccccc2oc1=O | inconclusive: 29.1 µM [activator, single point] |  |
| NS(=O)(=O)c1ccc(CCNC(=O)C2CCN(C(=O)Nc3ccccc3)CC2)cc1 | inconclusive: 29.1 µM [activator, single point] |  |
| COc1ccc(S(=O)(=O)N2CCOC23CCN(S(=O)(=O)c2ccccc2)CC3)cc1 | active: 7.31 µM |  |
| CN1CCN(Cc2nc3ccccc3n2C)CC1CCO (configuration not stated) | inconclusive: 29.1 µM [activator, single point] |  |
| CCOC(=O)C1(CCc2ccccc2)CCN(Cc2nccn2CC)CC1 | inactive |  |
| O=[N+]([O-])c1ccccc1Oc1ccc(S(=O)(=O)N2CCOCC2)cc1 | inconclusive: 5.17 µM [activator, full curve, poor fit] |  |
| COc1cc(NC(=O)CSc2nncn2C)c(C)cc1[N+](=O)[O-] | inconclusive: 18.4 µM [activator, single point] |  |
| COC(=O)C1=C(C)NC2=C(C(=O)c3ccccc32)C1c1cccc(OC)c1 (configuration not stated) | inactive |  |
| Cc1cccc(-c2nsc(SCC(=O)NCC3CCCO3)n2)c1 (configuration not stated) | inactive |  |
| C#CCOCCOCCOCCNc1nc(N2CCN(C(=O)CCCCCCCCCCNC(=O)[C@H](CO)n3cc(CCCSC)nn3)CC2)nc(N2CCN(C(=O)CCCCCCCCCCNC(=O)[C@H](CCCCN)n3cc(CCO)nn3)CC2)n1 | inconclusive: 3.66 µM [activator, partial curve, poor fit] |  |
| O=C(Nc1ccc(O)cc1)c1cc2n(n1)C(C(F)(F)F)CC(c1ccco1)N2 (configuration not stated) | inconclusive: 18.4 µM [activator, single point] |  |
| COc1ccc(Cn2nnc3c(C)n[nH]c(=O)c32)cc1 | inactive |  |
| CCc1ccc(-n2c(SCC(=O)Nc3ccc(C(=O)O)cc3)nnc2-c2ccncc2)cc1 | inactive |  |
| O=C(O)COc1ccccc1/C=N/NC(=O)CN1CCN(Cc2ccc(Cl)cc2)CC1 | inconclusive: 18.4 µM [activator, partial curve, poor fit] |  |
| COc1ccccc1NC(=O)CN1C(=O)COc2ccc(C)cc21 | inconclusive: 20.6 µM [activator, single point] |  |
| Cn1nc(Cc2n[nH]c(=S)n2C)c2ccccc2c1=O | inconclusive: 32.6 µM [activator, partial curve, poor fit] |  |
